In patent publication US20220380317A1, “COMPOUNDS HAVING ANTIMALARIAL ACTIVITY” (NANYANG TECHNOLOGICAL UNIVERSITY, priority 2019, published 2022):
Entries after “also recorded” stand apart in the source; their conditions may differ. For at least one compound, name, drawing or mass did not settle the structure.

Tests used:
[1] = tested on: P. falciparum; experiment: in vitro P. falciparum growth inhibition / dose response assay (Hoechst 33342 FACS read out); type: cell-based, Plasmodium falciparum; details: wild type and multidrug-/chloroquine-resistant P. falciparum
Description: For the in vitro P. falciparum culture, P. falciparum 3D7, Dd2, K1, T994, W2, and W2mef cell lines were obtained from Malaria Research and Reference Reagent Resource Center (MR4), BEI Resources. Artemisinin-resistant and -sensitive parasite field isolates from Ratanakiri, Cambodia were obtained by request from the Tracking Resistance to Artemisinin Collaboration (TRAC). In vitro parasite culture was performed as described by Maier and Rug (Methods Mol Bio 2013; 923:3-15). […]
In a mid-throughput compound library screen, compounds were screened for antiparasitic activity by growth rate over a duration of 60 hrs (slightly over one IDC). ˜1% parasitemia of 0-3hpi ring stage culture in 2% haematocrit were treated with 10 μM of library compound (0.1% final DMSO concentration), and seeded into 96well flat bottom plates. […] After 60 hr of treatment (to allow ring stages to develop a more defined morphology), taken for Fluorescent-activated Cell Sorting (FACS) read out.
Assay read out was done by staining with Hoechst 33342 (Excitation 350 nm, Emission 461 nm; Molecular Probes, Life Technologies), a cell permeable DNA staining dye. […] Cells were read via a High Throughput Sampler (HTS)-coupled FACS machine (BD Biosciences) in the UV laser excitation channel (Excitation 355 nm). […]

[2] = tested on: 3D7 gametocytes; experiment: anti-gametocyte activity; type: cell-based, Plasmodium falciparum; details: 6 days treatment
[3] = tested on: P. falciparum 0-3hpi ring stage parasites; experiment: asexual blood stage-specificity assay; type: cell-based, Plasmodium falciparum; details: 10 μM
[4] = tested on: P. berghei; experiment: in vivo growth suppression test in P. berghei BALB/c mice model
Description: In a next step, the compound's in vitro activity was validated in vivo in a P. berghei BALB/c mice model. A growth suppression test was done by intraperitoneally infecting 4-week old Balb/c mice with GFP-expressing parasites, and allowing the parasitemia to rise to 3-4%. Subsequently, different doses of the compound were administered intraperitoneally once daily over four days.
Tail snips were done once daily to obtain blood samples for the measurement of parasitemia by FACS.

C1=NC(c2ccccc2)C(c2ccccc2)N1Cc1cccc(CN2C=NC(c3ccccc3)C2c2ccccc2)c1 (centres unmarked) [A1, 1-({m-[(4,5-Diphenyl-1-imidazolinyl)methyl]phenyl}methyl)-4,5-diphenylimidazoline]
efficacy against P. falciparum in vitro [1]: highly effective; also recorded: low nanomolar efficacy
gametocidal activity ([2]; 1000 nM): partial inhibition
gametocidal activity ([2]; 5000 nM): Full gametocidal activity
asexual stage killing [3]: asexual stage killing at ring and trophozoite stages
parasite morphology after treatment ([3]; treated at 0 and 12 hr of the life cycle): ring stage parasites formed a pyknotic structure
parasite morphology after treatment ([3]; treatment began at 24 hr): Condensed trophozoites
reduction of parasitemia ([4]; 20 mg/kg once daily for four days): unable to further reduce parasitemia beyond day 3
reduction of parasitemia ([4]; 30 mg/kg intraperitoneally once daily for four days): fully reduce parasitemia after four days; also recorded: reduce parasitemia to below the level of detection
reduction of parasitemia ([4]; 5 and 10 mg/kg once daily for four days): very weak or no effect at all
recrudescence of the infection ([4]; after last dosage): two to three days after the last dosage was given
control of infection in comparison to artemisinin given at the same dosage ([4]; mouse, in vivo): seemed to control the infection better
